This is one part of the list.
Compound: C1=CC=C(C=C1)[C@H](COC2=CC3=C(C=C2)NC(=O)N3)NC(=O)C4=CC=CN(C4=O)CC5=CC(=C(C=C5)F)F
Experiment: log2 fold change, soluble protein after heating vs DMSO (PISA); higher = thermal stabilisation; K562 lysate, 10 uM; active = over 0.2 and 3.5 SD of the protein, either way, in both replicates (recomputed)
Procedure, shortened: (§1)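 K562 pellets were dounce-homogenised in PBS pH 7.4 with 1 mM MgCl2, and the crude extract at 1 mg/mL protein was treated with 10 μM compound for 30 min. Aliquots were heated for 3 min across 48°C-58°C, pooled, and brought to 0.5% NP-40 at 4°C; soluble protein was the supernatant after 21,000xg for 90 min. Soluble protein was quantified by TMTpro 16plex LC-MS/MS with channel sums equalised, and reported as log2 fold change in thermal stability against DMSO controls, with values from duplicates.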

By UniProt entry, the sequences of proteins in these tests, tags left out. Where a name states a change or a piece, a line headed by the entry shows the natural chain unless it says otherwise.
UniProt Q14643, whole entry, looked up: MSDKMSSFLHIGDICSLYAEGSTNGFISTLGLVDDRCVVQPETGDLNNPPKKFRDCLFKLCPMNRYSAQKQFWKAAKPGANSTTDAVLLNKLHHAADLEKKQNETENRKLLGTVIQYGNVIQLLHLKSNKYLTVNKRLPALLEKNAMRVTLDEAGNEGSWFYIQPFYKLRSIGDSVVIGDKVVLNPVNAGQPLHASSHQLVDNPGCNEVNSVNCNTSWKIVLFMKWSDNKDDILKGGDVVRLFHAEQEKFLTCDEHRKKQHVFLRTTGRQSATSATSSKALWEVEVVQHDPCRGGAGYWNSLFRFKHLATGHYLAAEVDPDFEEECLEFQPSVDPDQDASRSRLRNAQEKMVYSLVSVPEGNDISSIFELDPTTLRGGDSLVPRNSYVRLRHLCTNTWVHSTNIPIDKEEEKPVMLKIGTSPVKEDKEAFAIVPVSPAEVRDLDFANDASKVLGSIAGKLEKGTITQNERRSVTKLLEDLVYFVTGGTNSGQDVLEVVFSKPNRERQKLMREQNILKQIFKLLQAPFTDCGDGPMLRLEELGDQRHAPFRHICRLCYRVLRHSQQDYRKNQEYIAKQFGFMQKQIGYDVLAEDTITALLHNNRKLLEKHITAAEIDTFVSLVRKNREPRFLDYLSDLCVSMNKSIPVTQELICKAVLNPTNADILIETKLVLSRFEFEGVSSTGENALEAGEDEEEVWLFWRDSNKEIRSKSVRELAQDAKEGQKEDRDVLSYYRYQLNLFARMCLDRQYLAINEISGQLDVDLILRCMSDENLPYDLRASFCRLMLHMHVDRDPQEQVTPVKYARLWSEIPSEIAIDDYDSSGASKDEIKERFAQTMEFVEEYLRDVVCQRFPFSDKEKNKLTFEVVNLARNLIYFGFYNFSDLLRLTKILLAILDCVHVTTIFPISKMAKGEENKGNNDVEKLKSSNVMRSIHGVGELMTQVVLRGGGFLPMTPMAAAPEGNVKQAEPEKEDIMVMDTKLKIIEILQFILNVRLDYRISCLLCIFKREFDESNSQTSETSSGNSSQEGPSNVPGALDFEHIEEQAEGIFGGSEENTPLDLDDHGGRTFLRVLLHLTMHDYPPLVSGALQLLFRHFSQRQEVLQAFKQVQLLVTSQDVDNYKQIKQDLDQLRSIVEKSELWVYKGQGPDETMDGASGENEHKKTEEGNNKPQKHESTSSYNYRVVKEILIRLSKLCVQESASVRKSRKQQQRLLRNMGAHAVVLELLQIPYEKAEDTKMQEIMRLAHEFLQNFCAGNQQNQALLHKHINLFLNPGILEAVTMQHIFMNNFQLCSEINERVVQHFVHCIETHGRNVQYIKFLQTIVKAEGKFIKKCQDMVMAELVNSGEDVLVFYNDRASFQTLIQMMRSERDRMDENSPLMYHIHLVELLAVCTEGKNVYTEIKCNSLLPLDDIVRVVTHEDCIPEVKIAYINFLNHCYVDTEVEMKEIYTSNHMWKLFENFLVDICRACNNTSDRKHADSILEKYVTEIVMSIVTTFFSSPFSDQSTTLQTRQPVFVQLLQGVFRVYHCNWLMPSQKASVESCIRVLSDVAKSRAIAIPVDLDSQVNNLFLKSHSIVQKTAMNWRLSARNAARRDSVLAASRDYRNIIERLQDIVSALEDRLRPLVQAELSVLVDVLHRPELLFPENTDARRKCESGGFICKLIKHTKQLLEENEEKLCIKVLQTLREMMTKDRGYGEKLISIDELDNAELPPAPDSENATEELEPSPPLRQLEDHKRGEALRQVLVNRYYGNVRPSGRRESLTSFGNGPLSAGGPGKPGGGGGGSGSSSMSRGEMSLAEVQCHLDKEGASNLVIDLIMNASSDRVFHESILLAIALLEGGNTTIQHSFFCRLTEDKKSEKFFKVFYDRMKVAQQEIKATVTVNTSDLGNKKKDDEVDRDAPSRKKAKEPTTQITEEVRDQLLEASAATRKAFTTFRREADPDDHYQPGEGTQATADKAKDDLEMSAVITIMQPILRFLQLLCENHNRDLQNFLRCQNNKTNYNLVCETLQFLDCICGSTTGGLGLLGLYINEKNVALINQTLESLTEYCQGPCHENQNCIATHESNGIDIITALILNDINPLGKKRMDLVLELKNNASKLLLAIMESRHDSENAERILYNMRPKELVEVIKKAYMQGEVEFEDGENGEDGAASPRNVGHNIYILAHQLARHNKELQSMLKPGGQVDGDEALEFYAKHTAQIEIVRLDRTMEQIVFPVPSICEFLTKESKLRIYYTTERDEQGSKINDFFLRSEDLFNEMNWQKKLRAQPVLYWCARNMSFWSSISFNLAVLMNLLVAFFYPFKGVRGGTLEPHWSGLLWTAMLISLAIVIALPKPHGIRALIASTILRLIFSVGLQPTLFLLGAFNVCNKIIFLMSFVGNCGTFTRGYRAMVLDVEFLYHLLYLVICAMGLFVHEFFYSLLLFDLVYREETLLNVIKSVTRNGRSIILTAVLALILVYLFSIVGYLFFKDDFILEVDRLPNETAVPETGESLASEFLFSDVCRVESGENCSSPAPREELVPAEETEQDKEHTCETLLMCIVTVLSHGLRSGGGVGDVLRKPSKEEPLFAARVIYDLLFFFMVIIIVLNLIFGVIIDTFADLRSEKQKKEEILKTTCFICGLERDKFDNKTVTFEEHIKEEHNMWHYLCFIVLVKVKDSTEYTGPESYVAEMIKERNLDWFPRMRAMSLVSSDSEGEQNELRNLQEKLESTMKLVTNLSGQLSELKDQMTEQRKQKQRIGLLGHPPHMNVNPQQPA
UniProt Q9P2N6: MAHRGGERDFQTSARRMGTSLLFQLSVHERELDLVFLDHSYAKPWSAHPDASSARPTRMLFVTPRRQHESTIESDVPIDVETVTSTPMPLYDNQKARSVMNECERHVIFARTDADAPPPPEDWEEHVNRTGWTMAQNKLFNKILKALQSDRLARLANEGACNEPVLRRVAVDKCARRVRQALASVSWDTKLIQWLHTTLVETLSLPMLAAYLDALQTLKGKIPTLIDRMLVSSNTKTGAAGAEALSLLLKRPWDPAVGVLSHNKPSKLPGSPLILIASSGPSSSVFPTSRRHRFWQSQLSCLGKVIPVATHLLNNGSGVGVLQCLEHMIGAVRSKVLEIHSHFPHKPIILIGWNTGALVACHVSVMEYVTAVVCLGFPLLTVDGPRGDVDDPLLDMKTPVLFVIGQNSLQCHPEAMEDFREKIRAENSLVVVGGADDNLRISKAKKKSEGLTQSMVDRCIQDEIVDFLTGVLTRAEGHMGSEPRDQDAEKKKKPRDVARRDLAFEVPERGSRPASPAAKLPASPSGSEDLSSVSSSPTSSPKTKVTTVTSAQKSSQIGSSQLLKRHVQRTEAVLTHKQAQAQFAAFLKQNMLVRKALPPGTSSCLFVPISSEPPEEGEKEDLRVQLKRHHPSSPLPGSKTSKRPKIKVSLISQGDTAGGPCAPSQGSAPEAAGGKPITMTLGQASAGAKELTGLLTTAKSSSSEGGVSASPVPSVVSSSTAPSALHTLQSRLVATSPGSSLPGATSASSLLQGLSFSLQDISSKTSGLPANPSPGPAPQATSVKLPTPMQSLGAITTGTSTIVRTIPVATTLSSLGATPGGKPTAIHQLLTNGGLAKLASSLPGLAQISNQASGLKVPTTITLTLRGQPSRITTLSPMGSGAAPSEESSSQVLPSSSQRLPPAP
UniProt Q14681: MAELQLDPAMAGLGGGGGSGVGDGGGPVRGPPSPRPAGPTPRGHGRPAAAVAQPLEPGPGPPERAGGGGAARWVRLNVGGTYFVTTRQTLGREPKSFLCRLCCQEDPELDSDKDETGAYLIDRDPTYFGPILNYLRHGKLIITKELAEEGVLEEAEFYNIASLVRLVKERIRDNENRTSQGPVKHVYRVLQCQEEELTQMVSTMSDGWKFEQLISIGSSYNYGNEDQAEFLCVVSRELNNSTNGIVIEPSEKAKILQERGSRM
UniProt P19823: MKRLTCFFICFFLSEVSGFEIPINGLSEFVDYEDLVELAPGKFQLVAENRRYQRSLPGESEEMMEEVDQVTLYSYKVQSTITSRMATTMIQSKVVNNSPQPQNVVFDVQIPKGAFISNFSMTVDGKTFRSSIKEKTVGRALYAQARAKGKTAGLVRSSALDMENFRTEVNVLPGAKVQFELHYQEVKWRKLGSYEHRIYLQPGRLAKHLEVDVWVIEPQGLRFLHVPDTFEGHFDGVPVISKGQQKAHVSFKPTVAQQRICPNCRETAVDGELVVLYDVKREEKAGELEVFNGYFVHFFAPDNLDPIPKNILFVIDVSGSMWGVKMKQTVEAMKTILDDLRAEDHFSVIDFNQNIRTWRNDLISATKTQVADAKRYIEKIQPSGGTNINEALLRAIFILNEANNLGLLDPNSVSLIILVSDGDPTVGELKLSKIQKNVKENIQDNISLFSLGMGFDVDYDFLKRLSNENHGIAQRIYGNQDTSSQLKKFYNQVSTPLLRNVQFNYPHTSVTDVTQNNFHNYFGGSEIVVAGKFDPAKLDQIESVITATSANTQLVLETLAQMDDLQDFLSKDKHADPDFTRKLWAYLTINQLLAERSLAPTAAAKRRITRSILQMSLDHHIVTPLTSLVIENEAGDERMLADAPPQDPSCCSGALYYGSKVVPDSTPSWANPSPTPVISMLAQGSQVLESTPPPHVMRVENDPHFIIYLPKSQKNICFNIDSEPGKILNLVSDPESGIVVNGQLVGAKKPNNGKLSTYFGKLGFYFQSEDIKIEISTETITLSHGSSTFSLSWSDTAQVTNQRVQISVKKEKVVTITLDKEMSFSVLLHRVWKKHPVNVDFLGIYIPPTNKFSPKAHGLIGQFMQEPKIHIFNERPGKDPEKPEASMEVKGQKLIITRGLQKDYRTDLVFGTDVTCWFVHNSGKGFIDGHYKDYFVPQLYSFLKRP
UniProt Q13303: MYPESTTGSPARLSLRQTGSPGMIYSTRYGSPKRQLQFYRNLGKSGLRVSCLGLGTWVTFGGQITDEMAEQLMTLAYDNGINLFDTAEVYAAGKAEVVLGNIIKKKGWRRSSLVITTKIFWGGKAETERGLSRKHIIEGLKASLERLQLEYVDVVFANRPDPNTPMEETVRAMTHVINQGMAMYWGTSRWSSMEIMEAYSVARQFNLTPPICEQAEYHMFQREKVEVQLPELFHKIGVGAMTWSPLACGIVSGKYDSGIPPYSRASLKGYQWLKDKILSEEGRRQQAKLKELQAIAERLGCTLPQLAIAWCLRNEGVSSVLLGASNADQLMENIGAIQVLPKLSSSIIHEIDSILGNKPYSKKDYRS
UniProt Q96AB3: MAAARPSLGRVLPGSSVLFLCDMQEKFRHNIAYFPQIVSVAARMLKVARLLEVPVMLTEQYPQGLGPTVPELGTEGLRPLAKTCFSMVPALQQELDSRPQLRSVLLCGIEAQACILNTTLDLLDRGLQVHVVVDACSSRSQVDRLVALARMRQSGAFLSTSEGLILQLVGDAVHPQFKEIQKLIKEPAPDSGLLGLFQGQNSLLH
UniProt Q96AZ6: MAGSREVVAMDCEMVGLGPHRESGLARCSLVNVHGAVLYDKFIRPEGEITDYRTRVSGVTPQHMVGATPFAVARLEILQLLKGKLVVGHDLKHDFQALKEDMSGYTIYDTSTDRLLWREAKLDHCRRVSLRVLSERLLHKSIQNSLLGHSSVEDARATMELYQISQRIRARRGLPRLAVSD
UniProt Q7Z5Y7: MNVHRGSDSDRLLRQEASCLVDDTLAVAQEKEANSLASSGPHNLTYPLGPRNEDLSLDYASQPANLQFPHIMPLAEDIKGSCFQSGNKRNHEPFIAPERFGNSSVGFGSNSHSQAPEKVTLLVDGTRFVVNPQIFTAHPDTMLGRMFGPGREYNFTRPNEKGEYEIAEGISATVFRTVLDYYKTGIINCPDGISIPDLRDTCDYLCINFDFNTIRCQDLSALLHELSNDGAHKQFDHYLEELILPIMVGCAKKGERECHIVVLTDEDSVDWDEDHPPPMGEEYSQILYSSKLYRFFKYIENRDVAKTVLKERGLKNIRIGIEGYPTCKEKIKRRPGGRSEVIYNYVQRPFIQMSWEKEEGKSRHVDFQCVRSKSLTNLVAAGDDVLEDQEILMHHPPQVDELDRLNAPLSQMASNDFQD
UniProt Q9H1K1: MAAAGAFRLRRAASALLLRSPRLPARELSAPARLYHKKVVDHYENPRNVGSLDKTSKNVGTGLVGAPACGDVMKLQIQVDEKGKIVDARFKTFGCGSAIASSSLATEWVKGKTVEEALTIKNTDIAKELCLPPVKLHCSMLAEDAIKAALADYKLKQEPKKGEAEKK
UniProt O14713: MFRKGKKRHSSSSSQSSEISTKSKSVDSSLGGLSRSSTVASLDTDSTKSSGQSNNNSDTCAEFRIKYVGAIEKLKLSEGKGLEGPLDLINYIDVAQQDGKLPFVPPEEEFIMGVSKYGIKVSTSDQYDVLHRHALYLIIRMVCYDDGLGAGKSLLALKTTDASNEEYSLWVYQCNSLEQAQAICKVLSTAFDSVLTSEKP
UniProt Q86U28: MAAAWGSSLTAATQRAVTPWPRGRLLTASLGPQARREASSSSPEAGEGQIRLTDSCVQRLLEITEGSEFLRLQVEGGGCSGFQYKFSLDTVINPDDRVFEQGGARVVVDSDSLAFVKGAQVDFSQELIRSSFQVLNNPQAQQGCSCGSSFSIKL

Target	log2 fold change
IRAK1 (UniProt P51617)	inactive: -0.146
IRF2BPL (UniProt Q9H1B7)	inactive: 0.055
KATNA1 (UniProt O75449)	inactive: -0.015
KATNAL1 (UniProt Q9BW62)	inactive: -0.029
IPO11 isoform 2 (UniProt Q9UI26)	inactive: 0.033
ITPR1 (UniProt Q14643)	inactive: 0.004
KCTD15 (UniProt Q96SI1)	inactive: 0.031
KANSL3 (UniProt Q9P2N6)	inactive: 0.087
KCTD9 (UniProt Q7L273)	inactive: 0.03
KCTD2 (UniProt Q14681)	inactive: 0.065
ITIH2 (UniProt P19823)	inactive: 0.018
KCTD5 (UniProt Q9NXV2)	inactive: 0.104
ITM2A (UniProt O43736)	inactive: -0.276
JMJD6 isoform 3 (UniProt Q6NYC1)	inactive: 0.043
KCNAB2 (UniProt Q13303)	inactive: 0.024
ISOC2 (UniProt Q96AB3)	inactive: -0.014
ISG20 (UniProt Q96AZ6)	inactive: -0.118
KDM3A (UniProt Q9Y4C1)	inactive: 0.011
KCTD20 (UniProt Q7Z5Y7)	inactive: -0.031

Target	log2 fold change
KDM1B (UniProt Q8NB78)	inactive: -0.043
ISCU (UniProt Q9H1K1)	inactive: -0.001
IQCB1 (UniProt Q15051)	inactive: -0.021
KBTBD2 (UniProt Q8IY47)	inactive: 0.016
IREB2 (UniProt P48200)	inactive: 0.011
IRF2BP1 (UniProt Q8IU81)	inactive: -0.048
ITGAE (UniProt P38570)	inactive: -0.016
INTS14 (UniProt Q96SY0)	inactive: 0.067
ISY1 isoform 1 (UniProt Q9ULR0)	inactive: 0.016
IQSEC2 (UniProt Q5JU85)	inactive: 0.027
IRF2 (UniProt P14316)	inactive: 0.169
ITGB1BP1 (UniProt O14713)	inactive: -0.035
JAK3 (UniProt P52333)	inactive: 0.031
IQUB (UniProt Q8NA54)	inactive: 0.137
ISCA2 (UniProt Q86U28)	inactive: 0.002
ISCA1 isoform 2 (UniProt Q9BUE6)	inactive: 0.005
KAT6B (UniProt Q8WYB5)	inactive: 0.087
INTS4 (UniProt Q96HW7)	inactive: 0.024
KAT8 (UniProt Q9H7Z6)	inactive: 0.079

Compound: CC1=C(SC2=C1C(=N[C@H](C3=NN=C(N32)C)CC(=O)N)C4=CC=C(C=C4)Cl)C
Experiment: as above
Procedure, shortened: as §1

Target	log2 fold change
IRAK1 (UniProt P51617)	inactive: -0.028
IRF2BPL (UniProt Q9H1B7)	inactive: -0.057
KATNA1 (UniProt O75449)	inactive: 0.009
KATNAL1 (UniProt Q9BW62)	inactive: 0.151
IPO11 isoform 2 (UniProt Q9UI26)	inactive: -0.003
ITPR1 (UniProt Q14643)	inactive: 0
KCTD15 (UniProt Q96SI1)	inactive: -0.018
KANSL3 (UniProt Q9P2N6)	inactive: 0.023
KCTD9 (UniProt Q7L273)	inactive: -0.028
KCTD2 (UniProt Q14681)	inactive: -0.072
ITIH2 (UniProt P19823)	inactive: 0.009
KCTD5 (UniProt Q9NXV2)	inactive: -0.047
ITM2A (UniProt O43736)	inactive: 0.156
JMJD6 isoform 3 (UniProt Q6NYC1)	inactive: -0.015
KCNAB2 (UniProt Q13303)	inactive: -0.001
ISOC2 (UniProt Q96AB3)	inactive: 0.035
ISG20 (UniProt Q96AZ6)	inactive: 0.076
KDM3A (UniProt Q9Y4C1)	inactive: -0.061
KCTD20 (UniProt Q7Z5Y7)	inactive: -0.011

Target	log2 fold change
KDM1B (UniProt Q8NB78)	inactive: 0.025
ISCU (UniProt Q9H1K1)	inactive: 0.003
IQCB1 (UniProt Q15051)	inactive: -0.002
KBTBD2 (UniProt Q8IY47)	inactive: -0.005
IREB2 (UniProt P48200)	inactive: 0.022
IRF2BP1 (UniProt Q8IU81)	inactive: -0.013
ITGAE (UniProt P38570)	inactive: 0.187
INTS14 (UniProt Q96SY0)	inactive: 0.034
ISY1 isoform 1 (UniProt Q9ULR0)	inactive: 0
IQSEC2 (UniProt Q5JU85)	inactive: 0.061
IRF2 (UniProt P14316)	inactive: -0.029
ITGB1BP1 (UniProt O14713)	inactive: -0.003
JAK3 (UniProt P52333)	inactive: -0.051
IQUB (UniProt Q8NA54)	inactive: 0.155
ISCA2 (UniProt Q86U28)	inactive: -0.102
ISCA1 isoform 2 (UniProt Q9BUE6)	inactive: -0.03
KAT6B (UniProt Q8WYB5)	inactive: -0.21
INTS4 (UniProt Q96HW7)	inactive: -0.028
KAT8 (UniProt Q9H7Z6)	inactive: -0.001
